# System: dLight
# Type: cell-based
smiles,measurement,value
"CCN(CC)C(=O)N[C@H]1C=C2c3cccc4[nH]cc(c34)C[C@H]2N(C)C1 [LIS, lisuride]",activation of dLight,both activated dLight to the same extent
